Laboratory results: the supplement of paper PMC6078165
± gives the standard deviation of the averaged measurements. The reference is the same well before dosing, and untreated signal decays as well.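 Fibroblast labels name human fibroblasts: mostly primary ones from tissues such as uterus (C12385, HUF), lung (H6013), bone (Hs27A), adrenal (HADF) and skin (WS1), plus mammary HMF and breast cancer-associated Hs343T. The cancer cells are basal-like or mesenchymal-like triple-negative breast cancer lines. The paper calls a changed response a hit when it shifts by more than 3x the replicate standard deviation. The tissue of the other fibroblasts is not given here.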

Tested on: MDAMB436
Experiment: relative JC-1 red fluorescence (viability) vs pre-drug, coculture with fibroblast (fraction); higher = more viable cancer cells
Protocol: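 JC-1 labelled TNBC cells cocultured 1:1 (1,500 cells each) with CellTrace Violet stained primary or stromal fibroblasts in 384-well plates in FluoroBrite medium, treated with one of 42 anticancer drugs at 0.1, 1, 10 or 100 uM. JC-1 red fluorescence (mitochondrial integrity in cancer cells only) was read by plate reader every 8 h for 72 h. Values are normalised to each well's pre-drug value. The stock of one drug was tenfold lower, so its dose labels may be too high.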

COc1cc([C@@H]2c3cc4c(cc3[C@@H](O[C@@H]3O[C@@H]5CO[C@@H](c6cccs6)O[C@H]5[C@H](O)[C@H]3O)[C@H]3COC(=O)[C@H]23)OCO4)cc(OC)c1O [Teniposide]
relative JC-1 red fluorescence
Conditions	8 h	16 h	24 h	32 h	40 h	48 h	56 h	64 h	72 h
0.1 µM, coculture fibroblast: C12385	0.748 ± 0.012	0.712 ± 0.02	0.689 ± 0.053	0.617 ± 0.057	0.58 ± 0.077	0.567 ± 0.081	0.55 ± 0.079	0.539 ± 0.087	0.543 ± 0.089
0.1 µM, coculture fibroblast: H6013	0.811 ± 0.037	0.781 ± 0.041	0.757 ± 0.04	0.762 ± 0.054	0.753 ± 0.055	0.774 ± 0.053	0.752 ± 0.058	0.746 ± 0.055	0.704 ± 0.061
0.1 µM, coculture fibroblast: H6019	0.7227 ± 0.0051	0.675 ± 0.014	0.653 ± 0.033	0.577 ± 0.031	0.538 ± 0.04	0.523 ± 0.035	0.495 ± 0.033	0.469 ± 0.034	0.456 ± 0.037
0.1 µM, coculture fibroblast: H6076	0.786 ± 0.013	0.734 ± 0.016	0.743 ± 0.008	0.709 ± 0.012	0.7114 ± 0.0071	0.6989 ± 0.004	0.7238 ± 0.001	0.7349 ± 0.0012	0.746 ± 0.014
0.1 µM, coculture fibroblast: H6231	0.72 ± 0.012	0.661 ± 0.01	0.69 ± 0.019	0.613 ± 0.025	0.599 ± 0.04	0.574 ± 0.041	0.576 ± 0.052	0.556 ± 0.057	0.548 ± 0.068
0.1 µM, coculture fibroblast: HADF	0.785 ± 0.011	0.7471 ± 0.0018	0.72479 ± 1.5e-05	0.703 ± 0.01	0.694 ± 0.023	0.719 ± 0.045	0.679 ± 0.047	0.683 ± 0.06	0.651 ± 0.064
0.1 µM, coculture fibroblast: HCFa	0.761 ± 0.043	0.735 ± 0.057	0.709 ± 0.06	0.683 ± 0.069	0.682 ± 0.076	0.7 ± 0.081	0.645 ± 0.1	0.648 ± 0.11	0.604 ± 0.11
0.1 µM, coculture fibroblast: HCPF	0.786 ± 0.076	0.741 ± 0.069	0.734 ± 0.058	0.659 ± 0.054	0.648 ± 0.038	0.614 ± 0.051	0.59 ± 0.04	0.585 ± 0.03	0.565 ± 0.032
0.1 µM, coculture fibroblast: HHSteC	0.79826 ± 2.5e-05	0.7636 ± 0.0053	0.7346 ± 0.0063	0.705 ± 0.021	0.697 ± 0.031	0.713 ± 0.034	0.665 ± 0.045	0.647 ± 0.05	0.599 ± 0.064
0.1 µM, coculture fibroblast: HMF	0.773 ± 0.024	0.717 ± 0.018	0.693 ± 0.03	0.648 ± 0.033	0.642 ± 0.036	0.613 ± 0.049	0.621 ± 0.058	0.606 ± 0.065	0.607 ± 0.073
0.1 µM, coculture fibroblast: HPFa	0.832 ± 0.03	0.7824 ± 0.0013	0.766 ± 0.0083	0.7319 ± 0.0016	0.7297 ± 0.0071	0.745 ± 0.0091	0.677 ± 0.016	0.648 ± 0.015	0.581 ± 0.021
0.1 µM, coculture fibroblast: HUF	0.805 ± 0.015	0.7317 ± 0.00097	0.7099 ± 0.0021	0.6359 ± 0.0057	0.5958 ± 0.002	0.57 ± 0.01	0.553 ± 0.0087	0.55 ± 0.0085	0.5492 ± 0.0012
0.1 µM, coculture fibroblast: Hs5	0.787 ± 0.038	0.733 ± 0.042	0.723 ± 0.047	0.675 ± 0.05	0.665 ± 0.067	0.628 ± 0.063	0.657 ± 0.071	0.635 ± 0.074	0.65 ± 0.079
0.1 µM, coculture fibroblast: Hs27A	0.775 ± 0.029	0.725 ± 0.011	0.715 ± 0.045	0.696 ± 0.049	0.687 ± 0.07	0.76 ± 0.097	0.673 ± 0.1	0.675 ± 0.11	0.601 ± 0.11
0.1 µM, coculture fibroblast: Hs343T	0.741 ± 0.059	0.67 ± 0.09	0.634 ± 0.095	0.588 ± 0.087	0.576 ± 0.089	0.542 ± 0.085	0.536 ± 0.087	0.538 ± 0.094	0.536 ± 0.097
0.1 µM, coculture fibroblast: WS1	0.761 ± 0.017	0.722 ± 0.0093	0.706 ± 0.0081	0.622 ± 0.011	0.589 ± 0.024	0.575 ± 0.033	0.558 ± 0.035	0.542 ± 0.04	0.548 ± 0.045
1 µM, coculture fibroblast: C12385	0.737 ± 0.051	0.7127 ± 0.0046	0.704 ± 0.011	0.637 ± 0.014	0.617 ± 0.025	0.599 ± 0.036	0.591 ± 0.045	0.588 ± 0.049	0.588 ± 0.059
1 µM, coculture fibroblast: H6013	0.844 ± 0.058	0.846 ± 0.087	0.858 ± 0.096	0.871 ± 0.11	0.898 ± 0.14	0.887 ± 0.068	0.794 ± 0.0048	0.758 ± 0.045	0.761 ± 0.013
1 µM, coculture fibroblast: H6019	0.737 ± 0.016	0.67805 ± 0.00044	0.668 ± 0.014	0.601 ± 0.016	0.577 ± 0.021	0.566 ± 0.021	0.534 ± 0.03	0.517 ± 0.035	0.497 ± 0.026
1 µM, coculture fibroblast: H6076	0.766 ± 0.057	0.702 ± 0.089	0.708 ± 0.083	0.667 ± 0.1	0.662 ± 0.1	0.628 ± 0.1	0.655 ± 0.11	0.657 ± 0.12	0.66 ± 0.12
1 µM, coculture fibroblast: H6231	0.708 ± 0.013	0.681 ± 0.011	0.736 ± 0.0023	0.654 ± 0.0086	0.648 ± 0.015	0.63 ± 0.029	0.634 ± 0.035	0.629 ± 0.052	0.623 ± 0.064
1 µM, coculture fibroblast: HADF	0.8052 ± 0.00091	0.799 ± 0.016	0.7886 ± 0.0077	0.774 ± 0.0097	0.7788 ± 0.006	0.8385 ± 0.0073	0.774 ± 0.013	0.78 ± 0.015	0.751 ± 0.026
1 µM, coculture fibroblast: HCFa	0.882 ± 0.025	0.9039 ± 0.0023	0.91 ± 0.023	0.91 ± 0.058	0.927 ± 0.089	0.818 ± 0.068	0.761 ± 0.041	0.83 ± 0.075	0.798 ± 0.12
1 µM, coculture fibroblast: HCPF	0.7505 ± 0.0036	0.7204 ± 0.0017	0.7609 ± 0.0069	0.7024 ± 0.0037	0.6924 ± 0.0035	0.6714 ± 0.0007	0.674 ± 0.012	0.67 ± 0.013	0.66 ± 0.021
1 µM, coculture fibroblast: HHSteC	0.797 ± 0.0095	0.7902 ± 0.0013	0.7822 ± 0.0024	0.7558 ± 0.0021	0.7615 ± 0.0047	0.788 ± 0.008	0.7418 ± 0.004	0.731 ± 0.019	0.692 ± 0.026
1 µM, coculture fibroblast: HMF	0.761 ± 0.018	0.7005 ± 0.0057	0.704 ± 0.013	0.648 ± 0.011	0.634 ± 0.017	0.609 ± 0.024	0.616 ± 0.036	0.606 ± 0.042	0.595 ± 0.046
1 µM, coculture fibroblast: HPFa	0.8738 ± 0.0082	0.85582 ± 0.00043	0.8436 ± 0.0019	0.80057 ± 3.2e-05	0.8104 ± 0.0033	0.821 ± 0.017	0.756 ± 0.023	0.729 ± 0.03	0.679 ± 0.039
1 µM, coculture fibroblast: HUF	0.797 ± 0.021	0.738 ± 0.029	0.721 ± 0.012	0.662 ± 0.015	0.618 ± 0.018	0.607 ± 0.015	0.591 ± 0.012	0.583 ± 0.016	0.587 ± 0.016
1 µM, coculture fibroblast: Hs5	0.7798 ± 0.0037	0.75 ± 0.0092	0.772 ± 0.013	0.728 ± 0.034	0.734 ± 0.024	0.698 ± 0.036	0.736 ± 0.051	0.741 ± 0.053	0.749 ± 0.054
1 µM, coculture fibroblast: Hs27A	0.797 ± 0.043	0.7614 ± 0.0013	0.761 ± 0.022	0.764 ± 0.027	0.778 ± 0.042	0.893 ± 0.056	0.803 ± 0.063	0.823 ± 0.081	0.779 ± 0.075
1 µM, coculture fibroblast: Hs343T	0.752 ± 0.024	0.7 ± 0.045	0.688 ± 0.056	0.65 ± 0.053	0.63 ± 0.068	0.596 ± 0.066	0.596 ± 0.087	0.59 ± 0.082	0.59 ± 0.092
1 µM, coculture fibroblast: WS1	0.758 ± 0.029	0.703 ± 0.03	0.709 ± 0.022	0.639 ± 0.015	0.614 ± 0.015	0.602 ± 0.023	0.595 ± 0.024	0.582 ± 0.021	0.578 ± 0.018
